Experimental data published in US11807607B1, “Aminocarbazole compounds as antibacterial agents” (KING FAISAL UNIVERSITY, priority 2023, dated 2023).
≈ marks a conversion by molar mass, not a printed value.

Tests used:
[1] = tested on: Staphylococcus aureus ATCC BAA-1556 (MERSA resistant); assay: Antibacterial MIC, CLSI M07-A10 dilution susceptibility test; format: cell-based; details: ATCCBAA1556
[2] = tested on: Staphylococcus aureus ATCC 29213; assay: as above; format: cell-based; details: ATCC29213

CN[C@H](CC(C)C)C(=O)N[C@H]1C(=O)N[C@@H](CC(N)=O)C(=O)N[C@H]2C(=O)N[C@H]3C(=O)N[C@H](C(=O)N[C@H](C(=O)O)c4cc(O)cc(O)c4-c4cc3ccc4O)[C@H](O)c3ccc(c(Cl)c3)Oc3cc2cc(c3O[C@@H]2O[C@H](CO)[C@@H](O)[C@H](O)[C@H]2O[C@H]2C[C@](C)(N)[C@H](O)[C@H](C)O2)Oc2ccc(cc2Cl)[C@H]1O [Vancomycin, reference compound]
MIC [1]: 1 µg/mL (≈ 0.69 µM) | MIC [2]: 1 µg/mL (≈ 0.69 µM)
